Toxic doses and inconclusive results are not listed. The calls were made as follows: active = survival T/C of 150% or more; inactive = T/C below 125% in these data.
System: BDF1 mice, P388 leukemia ip, median survival T/C
Assay: NCI In Vivo Anticancer Drug Screen. Data for tumor model P388 Leukemia (intraperitoneal) in B6D2F1 (BDF1) mice
Settings: endpoint: median survival time, higher = longer survival
Procedure, shortened: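 Read-out is survival of treated animals expressed relative to the vehicle group, as a T/C ratio.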

Measured: T/C

COc1cc2c(c(OC)c1OC)-c1ccc(OC)c(=O)cc1[C@@H](N)CC2
inactive: dose: 0.25 mg/kg/injection, schedule: Q01DX010 (ip), vehicle: saline 109 % of control | dose: 0.5 mg/kg/injection, schedule: Q01DX010 (ip), vehicle: saline 113 % of control | dose: 0.6 mg/kg/injection, schedule: Q01DX009 (ip), vehicle: water 106 % of control | dose: 0.63 mg/kg/injection, schedule: Q01DX009 (ip), vehicle: Klucel (hydroxypropylcellulose) (HPC) 105 % of control | dose: 1.0 mg/kg/injection, schedule: Q01DX010 (ip), vehicle: saline 113 % of control | dose: 1.0 mg/kg/injection, schedule: Q01DX010 (ip), vehicle: water 115 % of control | dose: 1.25 mg/kg/injection, schedule: Q01DX009 (ip), vehicle: Klucel (hydroxypropylcellulose) (HPC) 109 % of control | dose: 2.0 mg/kg/injection, schedule: Q01DX010 (ip), vehicle: saline 122 % of control | dose: 2.5 mg/kg/injection, schedule: Q01DX009 (ip), vehicle: Klucel (hydroxypropylcellulose) (HPC) 119 % of control | dose: 2.5 mg/kg/injection, schedule: Q01DX009 (ip), vehicle: water 103 % of control | dose: 5.0 mg/kg/injection, schedule: Q01DX009 (ip), vehicle: Klucel (hydroxypropylcellulose) (HPC) 122 % of control

From PubChem BioAssay AID328 (DTP/NCI, 2004)
